# Literature values in patent publication US9023841B2, “Compositions and methods for the treatment of asthma and associated disorders” (University of Southern California, priority 2011, dated 2015).
# At least one structure is not confirmed: it was looked up by name or label, or the drawing left a doubt.
# Tested on: Tregs
# Conditions: cited from earlier work
smiles,measurement,value
CO[C@H]1C[C@@H]2CC[C@@H](C)[C@@](O)(O2)C(=O)C(=O)N2CCCC[C@H]2C(=O)O[C@H]([C@H](C)C[C@@H]2CC[C@@H](O)[C@H](OC)C2)CC(=O)[C@H](C)/C=C(\C)[C@@H](O)[C@@H](OC)C(=O)[C@H](C)C[C@H](C)/C=C/C=C/C=C/1C [rapamycin],number of Tregs,increase
